The list shows a part of the results. Many values rest on one well or one pass, so single values are uncertain.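 Imaging used 1,536-well plates; nuclei positive for cleaved PARP by antibody were divided by total DNA-stained nuclei to yield the apoptosis fraction. Doses for screening kept most cells viable, and cell lines differ markedly in resting and induced cleaved-PARP levels.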
What was measured:
Experiment in all cases: cleaved PARP positive nuclei fraction relative to DMSO control; melanoma cells; higher = more apoptosis
Conditions in all cases: library dose: low library concentration; 72 h
COLO792 = test system: COLO792
COLO800 = test system: COLO800
COLO829 = test system: COLO829
G361 = test system: G361
IPC-298 = test system: IPC-298
IST-MEL1 = test system: IST-MEL1
LOXIMVI = test system: LOXIMVI
LB2518-MEL = test system: LB2518-MEL
MEL-HO = test system: MEL-HO

| SMILES | cleaved PARP positive nuclei fraction (COLO792) | cleaved PARP positive nuclei fraction (COLO800) | cleaved PARP positive nuclei fraction (COLO829) | cleaved PARP positive nuclei fraction (G361) | cleaved PARP positive nuclei fraction (IPC-298) | cleaved PARP positive nuclei fraction (IST-MEL1) | cleaved PARP positive nuclei fraction (LOXIMVI) | cleaved PARP positive nuclei fraction (LB2518-MEL) | cleaved PARP positive nuclei fraction (MEL-HO) |
| --- | --- | --- | --- | --- | --- | --- | --- | --- | --- |
| Nc1ccn([C@@H]2O[C@H](CO)[C@@H](O)C2(F)F)c(=O)n1 [gemcitabine] + Cc1cc(SCc2sc(-c3ccc(C(F)(F)F)c(F)c3)nc2C)ccc1OCC(=O)O [GW0742] (first compound 0.0004 µM, partner dose 2 µM) | 85% | 191% | 150% | 102% | 84.1% | 151% | 368% | – | – |
| C[C@]12O[C@H](C[C@]1(O)CO)n1c3ccccc3c3c4c(c5c6ccccc6n2c5c31)CNC4=O [Lestaurtinib] + C=CCn1c(=O)c2cnc(Nc3ccc(N4CCN(C)CC4)cc3)nc2n1-c1cccc(C(C)(C)O)n1 [MK1775] (first compound 0.004 µM, partner dose 0.02 µM) | 113% | 78.6% | 83.2% | 125% | 63.9% | 91.6% | 60.9% | 58.3% | 113% |
| C[As](C)SC[C@H](NC(=O)CC[C@H](N)C(=O)O)C(=O)NCC(=O)O [Darinaparsin] + COc1cc(Nc2ncc(F)c(Nc3ccc4c(n3)NC(=O)C(C)(C)O4)n2)cc(OC)c1OC [Tamatinib] (first compound 0.4 µM, partner dose 0.4 µM) | 244% | 68.8% | 145% | 104% | 238% | 98.1% | 194% | 198% | 144% |
| N.N.[Cl][Pt][Cl] [cisplatin] + C[C@@H]1CCN(C(=O)CC#N)C[C@@H]1N(C)c1ncnc2[nH]ccc12 [CP690550] (first compound 1.6 µM, partner dose 1 µM) | 111% | 34% | 122% | 100% | 181% | 66.4% | 21.9% | 101% | 128% |
| Cn1cc(C2=C(c3cn(C4CCN(Cc5ccccn5)CC4)c4ccccc34)C(=O)NC2=O)c2ccccc21 [Enzastaurin] + Cc1cc([N+](=O)[O-])ccc1NS(=O)(=O)c1cc(Cl)ccc1Cl [FH535] (first compound 0.8 µM, partner dose 1 µM) | 115% | 94.2% | 61.4% | 102% | 278% | 86.3% | 95.8% | – | – |
| C[C@]12O[C@H](C[C@]1(O)CO)n1c3ccccc3c3c4c(c5c6ccccc6n2c5c31)CNC4=O [Lestaurtinib] + COc1cc(Nc2ncc(F)c(Nc3ccc4c(n3)NC(=O)C(C)(C)O4)n2)cc(OC)c1OC [Tamatinib] (first compound 0.004 µM, partner dose 0.4 µM) | 156% | 68.2% | 95.8% | 82.3% | 61.7% | 240% | 204% | 114% | 89.6% |
| O=C(O)c1ccc2c(c1)nc(Nc1cccc(Cl)c1)c1ccncc12 + C/C(O)=C(\C#N)C(=O)Nc1cc(Br)ccc1Br [LFM-A13] (first compound 0.4 µM, partner dose 2 µM) | 198% | 75.5% | 206% | 82.8% | 98% | 66% | 46.1% | – | – |
| C[C@]12O[C@H](C[C@]1(O)CO)n1c3ccccc3c3c4c(c5c6ccccc6n2c5c31)CNC4=O [Lestaurtinib] + OCCn1cc(-c2cnc3nnn(Cc4ccc5ncccc5c4)c3n2)cn1 [PF04217903] (first compound 0.004 µM, partner dose 1 µM) | 105% | 107% | 145% | 73.5% | 45.3% | 45.4% | 98.5% | – | 257% |
| CC(C)C[C@H](NC(=O)[C@H](Cc1ccccc1)NC(=O)c1cnccn1)B(O)O [Bortezomib] + Cc1cc(SCc2sc(-c3ccc(C(F)(F)F)c(F)c3)nc2C)ccc1OCC(=O)O [GW0742] (first compound 0.001 µM, partner dose 2 µM) | 142% | 34.4% | 270% | 1960% | 54.1% | 260% | 77.5% | – | – |
| C[As](C)SC[C@H](NC(=O)CC[C@H](N)C(=O)O)C(=O)NCC(=O)O [Darinaparsin] + C[C@@H]1CCN(C(=O)CC#N)C[C@@H]1N(C)c1ncnc2[nH]ccc12 [CP690550] (first compound 0.4 µM, partner dose 1 µM) | 88.9% | 63.9% | 69.3% | 70.1% | 42.8% | 94% | 203% | 47.4% | 199% |
| C[As](C)SC[C@H](NC(=O)CC[C@H](N)C(=O)O)C(=O)NCC(=O)O [Darinaparsin] + O=C(CCCCCCC(=O)Nc1ccccc1)NO [vorinostat] (first compound 0.4 µM, partner dose 0.08 µM) | 101% | 142% | 98.2% | 67.1% | 84.4% | 83.6% | 109% | 183% | 66.4% |
| C[C@]12O[C@H](C[C@]1(O)CO)n1c3ccccc3c3c4c(c5c6ccccc6n2c5c31)CNC4=O [Lestaurtinib] + CC1(C)NC(=O)N(c2ccc([N+](=O)[O-])c(C(F)(F)F)c2)C1=O [nilutamide] (first compound 0.004 µM, partner dose 1 µM) | 111% | 87.9% | 54.2% | 60.3% | 24.1% | 90.2% | 61.7% | 102% | 72.5% |
| C[C@]12O[C@H](C[C@]1(O)CO)n1c3ccccc3c3c4c(c5c6ccccc6n2c5c31)CNC4=O [Lestaurtinib] + O=C(O)c1ccc(-c2c[nH]c3ncc(-c4ccccc4)cc23)cc1C1CCCC1 [GSK650394] (first compound 0.004 µM, partner dose 0.16 µM) | 153% | 69.3% | 118% | 88.4% | 102% | 179% | 51% | 101% | 50.3% |
| Cn1cc(C2=C(c3cn(C4CCN(Cc5ccccn5)CC4)c4ccccc34)C(=O)NC2=O)c2ccccc21 [Enzastaurin] + Cc1ccc(NC(=O)c2cccc(N(C)C)c2)cc1NC(=O)c1ccc(O)cc1 [ZM336372] (first compound 0.8 µM, partner dose 2 µM) | 64% | 46.5% | 106% | 43.3% | 43.8% | 47.2% | 41.2% | 428% | 106% |
| C[C@]12O[C@H](C[C@]1(O)CO)n1c3ccccc3c3c4c(c5c6ccccc6n2c5c31)CNC4=O [Lestaurtinib] + CC(C)(C)c1cnc(CSc2cnc(NC(=O)C3CCNCC3)s2)o1 [SNS-032] (first compound 0.004 µM, partner dose 0.01 µM) | 70.7% | 290% | 77% | 148% | 47% | 95% | 94.3% | 51.7% | 64.2% |
